The values that follow come from PMC6739334.

For at least one entry, the source does not settle the construct or the ends of the probe. A negative result means that nothing was seen under these conditions.

The test system of series [1] is YBX1 (recombinant, Abcam ab187443). In words: competition with a labelled probe. Conditions: unlabeled mutant fails to compete with labeled site-1, unlabeled wild type competes; EMSA: LightShift Chemiluminescent RNA EMSA kit, room temperature 20-30 min, buffer not stated; pull-down with linearized circAnks1a: 50 mM Tris-HCl, 150 mM NaCl; commercial protein; label: unlabeled competitor.

Series [2] relates to Transportin-1 (recombinant, GeneTex GTX103003). In words: EMSA. The conditions noted are these: 20 ug protein; EMSA: LightShift Chemiluminescent RNA EMSA kit, room temperature 20-30 min, buffer not stated; pull-down with linearized circAnks1a: 50 mM Tris-HCl, 150 mM NaCl; commercial protein; label: 3' biotin.
Series [3] has as its system YBX1 (recombinant, Abcam ab187443). In words: EMSA. Conditions: 20 ug protein; EMSA: LightShift Chemiluminescent RNA EMSA kit, room temperature 20-30 min, buffer not stated; pull-down with linearized circAnks1a: 50 mM Tris-HCl, 150 mM NaCl; commercial protein; label: 3' biotin.

As to “CCUAGGGAACGCCCGCCACCAGGUCGUUAGCCGCCGCCUGAUGAAGAG [circAnks1a site-1 mutant]”, the binding result in series [1] is listed as “no binding”.

For “CCUAGGGAACGCCCGCCACCUCCAGCAAAGCCGCCGCCUGAUGAAGAG [circAnks1a site-1 (YBX1 motif-1)]”, the binding result in series [2] was “no binding”; in series [3] it was “binds”.

Turning to “UGGCUGCAGGAAUCGACGUCAACAUCAAGGACAACCGUGGCCUGACU [circAnks1a site-2 (YBX1 motif-2)]”, in series [3], the binding result was “no binding”.
